# Measurements taken from PubChem BioAssay AID504834 (National Center for Advancing Translational Sciences (NCATS), 2011).
# Out of some 320,000 compounds screened, about 22,000 (6.9%) were called active. The shares of active, inactive and inconclusive entries below differ from those in the screen. Calls come from the whole dose curve; as a rule, active = well fitted inhibition curve with a large enough effect; inconclusive = small, poorly fitted or top-dose-only effect, or another doubt; inactive = no such curve, though single readings can be large or run the other way. Potencies beside an inconclusive call are fits to weak or partial responses and may not hold up.
# Assay: Primary qHTS for delayed death inhibitors of the malarial parasite plastid, 96 hour incubation
# Details: P. falciparum luciferase reporter growth; series mostly up to 28.7 µM; activity change, negative = inhibition: at the top concentration
# Procedure, shortened: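 Erythrocytes infected with luciferase-expressing P. falciparum were dispensed at 2% hematocrit and 0.05% parasitemia (final), then incubated with compounds 96 hours at 37 C in 5% CO2. Luminescence after detection reagent addition reported growth.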
# % is set by controls: 0 for no effect and ±100 for the full control effect; potency is the fitted concentration of half-maximal effect.
Compound,Potency,"activity change, negative = inhibition"
N#C/C(C(N)=O)=C1/SC=C(c2ccccc2)N1c1ccccc1,"inconclusive: 0.586 µM [inhibitor, partial curve, poor fit]",
C=CCNC(=O)CN1C(=O)NC(C)(c2ccc(OC)cc2)C1=O (stereo not drawn),,inactive: 19%
CCOC(=O)C1CCCN(S(=O)(=O)c2cc3c(cc2Cl)NC(=O)CO3)C1 (stereo not drawn),"inconclusive: 18.5 µM [inhibitor, single point]",
O=C(CSc1ccc(F)cc1)Nc1nnc(-c2ccco2)o1,"inconclusive: 18.5 µM [inhibitor, single point]",
Cc1cnc(NS(=O)(=O)c2ccccc2)c(Br)c1,"inconclusive: 0.0738 µM [inhibitor, full curve, poor fit]",
Cc1ccc(C)n1CCN1CCN(C(=O)c2ccc(Cl)cc2)CC1,"inconclusive: 13.1 µM [inhibitor, single point]",
COc1ccc(/C=C2\SC(=S)N(CCC(=O)NC3CCCC3)C2=O)cc1OC,"inconclusive: 7.38 µM [inhibitor, partial curve, poor fit]",
C[C@]12CC[C@H]3[C@@H](CC[C@@]45O[C@@H]4C(=O)C(C#N)C[C@]35C)[C@@H]1CC[C@@H]2O (stereo partly drawn),,inactive: -8.18%
O=C(CCC1CCCN(C(=O)CC2=CCCCC2)C1)N1CCN(c2ccccn2)CC1 (stereo not drawn),"inconclusive: 11.7 µM [inhibitor, single point]",
COc1ccc(C(C(=O)NC(C)(C)C)N(C(=O)CNC(=O)c2cccs2)c2ccc(NC(C)=O)cc2)cc1OC (stereo not drawn),"inconclusive: 18.5 µM [inhibitor, single point]",
Cc1nn(-c2ccccc2)c(N2CCCC2)c1/C=N/NC(=O)c1cc(-c2ccccn2)nc2ccccc12,"inconclusive: 18.5 µM [inhibitor, single point]",
Cc1cc(Cl)c(C)c(S(=O)(=O)N2CCN(C(=O)C3CCCO3)CC2)c1Cl (stereo not drawn),"inconclusive: 10.4 µM [inhibitor, partial curve]",
O=C(NCc1ccco1)c1ccccc1NS(=O)(=O)c1ccc(Br)s1,"inconclusive: 0.465 µM [inhibitor, partial curve, poor fit]",
Cc1cccc(N(CC(=O)NCCSCc2ccco2)S(=O)(=O)c2ccccc2)c1,"inconclusive: 9.28 µM [inhibitor, partial curve]",
C=CCn1c(SCC(=O)N2CC(=O)Nc3ccccc32)nc2scc(-c3cccs3)c2c1=O,,inactive: -34.2%
O=C(Nc1ccc(S(=O)(=O)N2CCN(c3ccccc3)CC2)cc1)c1cccs1,"inconclusive: 1.31 µM [inhibitor, partial curve, poor fit]",
Cc1nn(-c2ccccc2)c(C)c1C(=O)OCC(=O)N(C)c1c(N)n(Cc2ccccc2)c(=O)[nH]c1=O,active: 11.7 µM,
Cc1cccc(N/N=C(\C(N)=O)C2=NC(C)(C)Cc3ccccc32)c1,active: 4.65 µM,
CCOC(=O)C1=C(N)Oc2cc(O)ccc2C1c1ccc([N+](=O)[O-])cc1 (stereo not drawn),"inconclusive: 18.5 µM [inhibitor, single point]",
CCOC(=O)c1ccc(N2C(=O)c3n[nH]c(C)c3C2c2ccc(OC)cc2OC)cc1 (stereo not drawn),active: 11.7 µM,
Cc1ccc(NC(=S)N(CCN2CCCCC2)Cc2ccco2)cc1Cl,"inconclusive: 18.5 µM [inhibitor, single point]",
CCOC(=O)c1ccc(NC(=O)CCNS(=O)(=O)c2ccc3c(c2)oc(=O)n3C)cc1,,inactive: 28%
CCN(CC)CC(=O)Nc1c(C)cc(C(C)(C)C)cc1C,,inactive: 59.4%

Compound,Potency,"activity change, negative = inhibition"
Cc1cccc(C(=O)NN/C=C/C(=O)c2ccccc2)c1,,inactive: 110%
CCCCOc1ccc(/C=C/C(=O)NC2=Nc3ccccc3NC(C)=C2C(=O)OCC)cc1OC,active: 10.4 µM,
CCOC(=O)C1CCCN(CCSc2ccc(C)cc2)C1 (stereo not drawn),"inconclusive: 18.5 µM [inhibitor, single point]",
CC(C)(C)C(=O)CSc1ccc(S(=O)(=O)N2CCCC2)cn1,"inconclusive: 11.7 µM [inhibitor, single point]",
COc1ccc(-c2csc(-n3ncc(-c4ccccn4)c3N)n2)cc1,"inconclusive: 11.7 µM [inhibitor, partial curve, poor fit]",
O=C1CC(N2CCN(Cc3ccc4c(c3)OCO4)CC2)C(=O)N1CCc1ccccc1 (stereo not drawn),,inactive: -7.78%
COc1ccc(-c2cn(Cc3ccc([N+](=O)[O-])cc3)nn2)cc1,,inactive: 41%
COC(=O)C(Cc1cnc(Cl)s1)(C(=O)OC)c1ccccc1[N+](=O)[O-],"inconclusive: 18.5 µM [inhibitor, single point]",
Cc1ccc(NC(=O)C(NC2CCCc3ccccc32)c2ccccc2)c([N+](=O)[O-])c1 (stereo not drawn),"inconclusive: 18.5 µM [inhibitor, single point]",
COc1cccc(N=CC2=C(O)CC(C)(C)CC2=O)c1,,inactive: -8.01%
Cc1cc(NC(=O)C2CCN(S(=O)(=O)c3cnc[nH]3)CC2)ccc1Br,,inactive: 48.9%
COc1ccc(CCNC(=O)CSc2nn(-c3ccccc3)c(=S)s2)cc1OC,"inconclusive: 10.4 µM [inhibitor, single point]",
C[C@@H](C(=O)O)c1cccc(C(=O)c2ccccc2)c1,,inactive: -23.4%
O=S(=O)(Nc1ccccn1)c1ccc(Cl)c2ccccc12,,inactive: 88.2%
O=C(NCCCCCCNC(=O)c1ccncc1)c1ccncc1,"inconclusive: 11.7 µM [inhibitor, single point]",
Cc1ccc(C)c(NC(=O)CSc2nncn2C)c1,"inconclusive: 16.5 µM [inhibitor, single point]",
Cc1ccccc1-c1cccc([C@@H]2C[C@H]3CN(Cc4cccnc4)C(=O)[C@]34CCCN24)c1,"inconclusive: 2.33 µM [inhibitor, partial curve, poor fit]",
COc1ccc(N2CCN(Cc3nc(-c4ccccc4)no3)CC2)cc1,"inconclusive: 7.38 µM [inhibitor, single point]",
CC1Cc2ccccc2N1C(=O)CSc1nnnn1-c1ccc2c(c1)OCCO2 (stereo not drawn),"inconclusive: 4.15 µM [inhibitor, single point]",
CN(CCO)C(=O)c1c(NC(=O)c2ccccc2)sc2c1CCCC2,"inconclusive: 16.5 µM [inhibitor, single point]",
Oc1ccc(/C=N/Nc2nn3cnnc3c3ccccc23)cc1,,inactive: 19.4%
CCOCCCNC(=O)C(NC(=O)c1cnccn1)c1ccc(C)cc1 (stereo not drawn),"inconclusive: 16.5 µM [inhibitor, single point]",
Cc1ccc(S(=O)(=O)N(CC(=O)NCc2ccco2)c2ccccc2C)cc1,"inconclusive: 2.33 µM [inhibitor, full curve]",

# Compounds above that contain a tert-butyl group:
Compound,Potency,"activity change, negative = inhibition"
COc1ccc(C(C(=O)NC(C)(C)C)N(C(=O)CNC(=O)c2cccs2)c2ccc(NC(C)=O)cc2)cc1OC (stereo not drawn),"inconclusive: 18.5 µM [inhibitor, single point]",
CCN(CC)CC(=O)Nc1c(C)cc(C(C)(C)C)cc1C,,inactive: 59.4%
CC(C)(C)C(=O)CSc1ccc(S(=O)(=O)N2CCCC2)cn1,"inconclusive: 11.7 µM [inhibitor, single point]",

# (continued)

Compound,Potency,"activity change, negative = inhibition"
O=C(CCN1CCN(c2ccccc2)CC1)N/N=C/c1ccc([N+](=O)[O-])o1,active: 10.4 µM,
CS(=O)(=O)c1ccc(-c2nnc(NC(=O)c3ccc(S(=O)(=O)N4CCCC4)cc3)o2)cc1,active: 7.38 µM,
CC(=O)c1cccc(S(=O)(=O)NC2CCSc3ccccc32)c1 (stereo not drawn),,inactive: -19.7%
COc1cccc(-c2nc(CS(=O)(=O)CC(=O)NC3CCCC3)c(C)o2)c1,,inactive: 37.5%
COc1ccccc1NC(=O)C(C)OC(=O)CCSc1ccc(F)cc1 (stereo not drawn),,inactive: -3.15%
c1ccc(Cn2c(CSc3nnnn3-c3ccccc3)nc3ccccc32)cc1,active: 14.7 µM,
O=C(COc1ccc(S(=O)(=O)Nc2ccccc2)cc1)NCc1cccnc1,"inconclusive: 5.86 µM [inhibitor, partial curve, poor fit]",
COc1ccc(-n2nc(C(=O)NCC(=O)NCc3ccccc3OC)c3ccccc3c2=O)c(OC)c1,"inconclusive: 11.7 µM [inhibitor, single point]",
CCCn1c(CC)nc([N+](=O)[O-])c1Sc1ccc(F)cc1,"inconclusive: 0.928 µM [inhibitor, partial curve, poor fit]",
CC(C)n1cc(CN2CCN(CCc3ccccc3)C(CCO)C2)cn1 (stereo not drawn),active: 14.7 µM,
CCCCn1nc2cc(C(=O)NCC34CC5CC(CC(C5)C3)C4)ccc2c1OCC,"inconclusive: 11.7 µM [inhibitor, single point]",
CCCCNC(=O)C(c1ccc(-c2ccccc2)cc1)N(CCN1CCOCC1)C(=O)CCCCCN1C(=O)NC(c2ccc([N+](=O)[O-])cc2)C(C(=O)OCc2ccccc2)=C1C (stereo not drawn),active: 3.29 µM,
O=C1C(Cc2ccc(Br)cc2)SC(=Nc2ccccc2)N1c1ccccc1 (stereo not drawn),"inconclusive: 11.7 µM [inhibitor, partial curve, poor fit]",
CSCC[C@H](NC(=O)C(C)(C)Oc1ccc(Cl)cc1)c1nc2ccccc2[nH]1,active: 10.4 µM,
CC(CN1CCCCC1)C(=O)NNC(=O)C12CC3CC(CC(C3)C1)C2 (stereo not drawn),active: 11.7 µM,
CN(C)c1ccc(N=C/C=C2/N(C)c3ccccc3C2(C)C)cc1,"inconclusive: 10.4 µM [inhibitor, single point]",
Cc1ccc(N(CC(=O)Nc2ccc(C)cc2C)S(=O)(=O)N2CCCC2)cc1,"inconclusive: 9.28 µM [inhibitor, single point]",
COC(=O)c1cc(C(=O)N(Cc2ccccc2)c2ccccn2)cc([N+](=O)[O-])c1,"inconclusive: 18.5 µM [inhibitor, single point]",
COc1cc(C(=O)Nc2c(C)cc(C)cc2C)c([N+](=O)[O-])cc1OC,,inactive: 67.1%
C=CCNC(=O)/C(C#N)=C/c1cn(-c2ccccc2)nc1-c1cccs1,,inactive: -29.7%
CCOc1cc(C=O)cc(Br)c1OCC(N)=O,"inconclusive: 7.38 µM [inhibitor, partial curve, poor fit]",
COc1ccc(C(=O)N/N=C/c2ccc(OC)c(CN3CCc4cc(OC)c(OC)cc4C3C)c2)cc1 (stereo not drawn),,inactive: -34%
